Data from the supplement of paper PMC12009310.
Counter-ions that a name gives are not always drawn. ± gives the standard deviation of the averaged measurements. The list shows a part of the results. Baselines shift from plate to plate; read single values as rough.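 The cells are a mouse kidney inner medullary collecting duct line, silenced either for the ciliary gene Rpgrip1l or with a non-targeting control siRNA.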

Test system: mIMCD3
Test: robust z score of cell number vs plate controls; higher = more cells (less cytotoxic)
Conditions: 10 µM; 48 h; siRNA: siRpgrip1l

Row | Compound | robust z score of cell number
1 | Nc1nc2c(nc(Br)n2[C@@H]2O[C@@H]3COP(=O)(O)O[C@H]3[C@H]2O)c(=O)[nH]1 [8-Bromo-cGMP, sodium salt] | -12 ± 9.8
2 | c1ccc2oc(C3=NCCN3)cc2c1 [2-BFI hydrochloride] | 9.2 ± 8.9
3 | COc1ccccc1N1CCN(CCN2C(=O)c3ccccc3C(C)(C)C2=O)CC1 [ARC 239 dihydrochloride] | -4.99 ± 1.7
4 | COc1cc2ncnc(Nc3ccc(Oc4ccccc4)cc3)c2cc1OC | -51.4 ± 67
5 | O=c1[nH]ccc2c(S(=O)(=O)N3CCCNCC3)cccc12 [HA 1100 hydrochloride] | -3.63 ± 2.1
6 | N[C@H](C(=O)O)c1ccc(O)c(C(=O)O)c1 [(S)-3-Carboxy-4-hydroxyphenylglycine] | 8.32 ± 11
7 | CCOC(=O)c1ccc(OC(=O)CCCCCNC(=N)N)cc1 [Gabexate mesylate] | 1.52 ± 2.5
8 | O=C(CCCN1CCC(O)(c2ccc(Cl)cc2)CC1)c1ccc(F)cc1 [Haloperidol hydrochloride] | -15.1 ± 11
9 | CC1(CN2CCC(n3c(=O)[nH]c4ccccc43)CC2)OCc2ccccc2-n2cccc21 (centres undefined) | -22.9 ± 12
10 | Nc1ncnc2c1ncn2C1CCCO1 (centres undefined) | -27.6 ± 29
11 | Cc1cc(C)c(S(=O)(=O)Nc2cccc(C(F)(F)F)c2)c(C)c1 | -43.3 ± 40
12 | c1cc2c(cc1C1CCCCC1)c1c3n2CCNC3CCC1 (centres undefined) [Tetrindole mesylate] | -55.9 ± 18
13 | O=C1C(=O)N(Cc2ccc(Cl)c(Cl)c2)c2ccccc21 [Apoptosis Activator 2] | -37.8 ± 24
14 | O=C(NCCCCCCNC(=O)ON=C1CCCCC1)ON=C1CCCCC1 | -2.28 ± 1.5
15 | NCCNC(=O)c1ccc(Cl)cn1 [Lazabemide hydrochloride] | 0.768 ± 0.37
16 | CN(CC[C@@H](Oc1ccc(-c2ccccc2)cc1)c1ccc(F)cc1)CC(=O)O [ALX 5407 hydrochloride] | -8.06 ± 7.3
17 | COc1ccc2[nH]c(I)c(CCNC(C)=O)c2c1 [2-Iodomelatonin] | -3.01 ± 2.8
18 | CC[N+](CC)(CC)CCOc1ccc(/C=C/c2ccccc2)cc1 | -254 ± 180
19 | CCOc1ccccc1OC(c1ccccc1)C1CNCCO1 (centres undefined) [Reboxetine mesylate] | 1.29 ± 2.4
20 | CCOc1cc(CC(=O)N[C@@H](CC(C)C)c2ccccc2N2CCCCC2)ccc1C(=O)O [Repaglinide] | -3.92 ± 0.26

Row | Compound | robust z score of cell number
21 | NS(=O)(=O)c1cc2c(cc1Cl)NC(C1CC3C=CC1C3)NS2(=O)=O (centres undefined) [Cyclothiazide] | -1.47 ± 1.9
22 | Nc1nc(-c2ccc(Cl)c(Cl)c2)c(-c2ccncc2)s1 [CGH 2466 dihydrochloride] | -13.1 ± 7
23 | O=C(O)Cn1c(C(=O)Nc2nc(-c3ccccc3Cl)cs2)cc2ccccc21 | -24.2 ± 18
24 | COc1ccc(CN2C(=O)C(=O)c3cc(OC(F)(F)F)ccc32)cc1 | -53.1 ± 51
25 | O=c1cc(-c2cccc3c2Sc2ccccc2S3)oc(N2CCOCC2)c1 | -26.3 ± 25
26 | OC(c1ccccc1)C1CCN(CCc2ccccc2)CC1 (centres undefined) | -8.54 ± 3.3
27 | CC(C)(C)c1ccc(S(=O)(=O)/C=C/C#N)cc1 | -54.8 ± 55
28 | COc1cc2ncnc(Nc3ccc(F)c(Cl)c3)c2cc1OCCCN1CCOCC1 [Iressa] | -31.5 ± 30
29 | CNCCC(Oc1ccc(C(F)(F)F)cc1)c1ccccc1 (centres undefined) [Fluoxetine hydrochloride] | -27.7 ± 3.7
30 | CC(C)c1ccccc1S(=O)(=O)c1cc(N)c2ncccc2c1[N+](=O)[O-] | -29.5 ± 16
31 | Fc1ccc([C@@H]2CCNC[C@H]2COc2ccc3c(c2)OCO3)cc1 [Paroxetine maleate] | -35.4 ± 20
32 | CC(=O)N(OCc1ccccc1)[C@H]1c2cc(C#N)ccc2OC(C)(C)[C@H]1O | -18.4 ± 21
33 | CCN(CC)CCOCCOC(=O)C1(c2ccccc2)CCCC1 [Carbetapentane citrate] | -97.1 ± 82
34 | Cc1ccc(OCC(O)C(C)NC(C)C)c2c1CCC2 (centres undefined) [ICI-118,551 hydrochloride] | -3.97 ± 4.4
35 | OC[C@H]1O[C@@H](n2cnc3c(N[C@H]4CCC[C@@H]4O)ncnc32)[C@H](O)[C@@H]1O | 2.65 ± 3.6
36 | O=[N+]([O-])c1cc(Cl)ccc1S(=O)(=O)N1CCN(Cc2ccccc2)CC1 | -8.94 ± 6
37 | O=C1OC(OC(=O)c2cccnc2Nc2cccc(C(F)(F)F)c2)c2ccccc21 (centres undefined) [Talniflumate] | -15.8 ± 7.2
38 | CC1CCN(CC[C@H]2CCCN2S(=O)(=O)c2cccc(O)c2)CC1 | -11.4 ± 16
39 | CC(C)(C)NC[C@H](O)COc1nsnc1N1CCOCC1 [(S)-Timolol maleate] | 1.15 ± 0.58

Shown with tabs: entries from further up
Row	Compound	robust z score of cell number
31	Fc1ccc([C@@H]2CCNC[C@H]2COc2ccc3c(c2)OCO3)cc1 [Paroxetine maleate]	-35.4 ± 20
32	CC(=O)N(OCc1ccccc1)[C@H]1c2cc(C#N)ccc2OC(C)(C)[C@H]1O	-18.4 ± 21
33	CCN(CC)CCOCCOC(=O)C1(c2ccccc2)CCCC1 [Carbetapentane citrate]	-97.1 ± 82
34	Cc1ccc(OCC(O)C(C)NC(C)C)c2c1CCC2 (centres undefined) [ICI-118,551 hydrochloride]	-3.97 ± 4.4
35	OC[C@H]1O[C@@H](n2cnc3c(N[C@H]4CCC[C@@H]4O)ncnc32)[C@H](O)[C@@H]1O	2.65 ± 3.6
36	O=[N+]([O-])c1cc(Cl)ccc1S(=O)(=O)N1CCN(Cc2ccccc2)CC1	-8.94 ± 6
37	O=C1OC(OC(=O)c2cccnc2Nc2cccc(C(F)(F)F)c2)c2ccccc21 (centres undefined) [Talniflumate]	-15.8 ± 7.2
